Target: T1, human NaX-QTT (Homo sapiens, UniProt Q01118, F724Q/I1189T/I1492T)
T1 construct: expressed in transfected cells; host or cells: Xenopus laevis oocytes injected with in vitro transcribed capped RNA
Assay: Two-electrode voltage-clamp of Xenopus laevis oocytes expressing human NaX-QTT with blockers or multivalent cations
Type: cell-based
Procedure: FIGS. 5A-C show pharmacology of the human NaX-QTT channel. FIG. 5A, left and middle panels, show representative I-V currents from HEK293 cells expressing human NaX-QTT with indicated extracellular monovalent cations with or without indicated amounts of CaCl2 in the extracellular solution. Voltage ramp from −80 to +80 mV was applied.
Oocytes were prepared as previously described^68. Healthy-looking stage V-VI oocytes were injected with 2.5-40 ng of RNA (in 5-41 nL) using a Nanoliter 2010 injector (World Precision Instruments). When excluding one or more construct, an equivalent volume of nuclease-free water was added to maintain a constant RNA concentration across different construct combinations. Injected oocytes were kept at 18° C., 140 rpm, in ND96 supplemented with 50 μg/mL gentamicin and 50 μg/mL tetracycline (in mM: 96 NaCl, 2 KCl, 1 MgCl2, 1.8 CaCl2), 2.5 sodium pyruvate, 0.5 theophylline, 5 HEPES; pH 7.4 with NaOH) for two to five days. […] The voltage dependence of ion current was determined using a protocol consisting of steps from a holding potential of 0 mV to voltages ranging from +80 to −100 mV for 1 s in 20 mV increment.

Chains of the proteins cited; added tags and fusions are not shown.
UniProt Q01118, whole entry F724Q/I1189T/I1492T: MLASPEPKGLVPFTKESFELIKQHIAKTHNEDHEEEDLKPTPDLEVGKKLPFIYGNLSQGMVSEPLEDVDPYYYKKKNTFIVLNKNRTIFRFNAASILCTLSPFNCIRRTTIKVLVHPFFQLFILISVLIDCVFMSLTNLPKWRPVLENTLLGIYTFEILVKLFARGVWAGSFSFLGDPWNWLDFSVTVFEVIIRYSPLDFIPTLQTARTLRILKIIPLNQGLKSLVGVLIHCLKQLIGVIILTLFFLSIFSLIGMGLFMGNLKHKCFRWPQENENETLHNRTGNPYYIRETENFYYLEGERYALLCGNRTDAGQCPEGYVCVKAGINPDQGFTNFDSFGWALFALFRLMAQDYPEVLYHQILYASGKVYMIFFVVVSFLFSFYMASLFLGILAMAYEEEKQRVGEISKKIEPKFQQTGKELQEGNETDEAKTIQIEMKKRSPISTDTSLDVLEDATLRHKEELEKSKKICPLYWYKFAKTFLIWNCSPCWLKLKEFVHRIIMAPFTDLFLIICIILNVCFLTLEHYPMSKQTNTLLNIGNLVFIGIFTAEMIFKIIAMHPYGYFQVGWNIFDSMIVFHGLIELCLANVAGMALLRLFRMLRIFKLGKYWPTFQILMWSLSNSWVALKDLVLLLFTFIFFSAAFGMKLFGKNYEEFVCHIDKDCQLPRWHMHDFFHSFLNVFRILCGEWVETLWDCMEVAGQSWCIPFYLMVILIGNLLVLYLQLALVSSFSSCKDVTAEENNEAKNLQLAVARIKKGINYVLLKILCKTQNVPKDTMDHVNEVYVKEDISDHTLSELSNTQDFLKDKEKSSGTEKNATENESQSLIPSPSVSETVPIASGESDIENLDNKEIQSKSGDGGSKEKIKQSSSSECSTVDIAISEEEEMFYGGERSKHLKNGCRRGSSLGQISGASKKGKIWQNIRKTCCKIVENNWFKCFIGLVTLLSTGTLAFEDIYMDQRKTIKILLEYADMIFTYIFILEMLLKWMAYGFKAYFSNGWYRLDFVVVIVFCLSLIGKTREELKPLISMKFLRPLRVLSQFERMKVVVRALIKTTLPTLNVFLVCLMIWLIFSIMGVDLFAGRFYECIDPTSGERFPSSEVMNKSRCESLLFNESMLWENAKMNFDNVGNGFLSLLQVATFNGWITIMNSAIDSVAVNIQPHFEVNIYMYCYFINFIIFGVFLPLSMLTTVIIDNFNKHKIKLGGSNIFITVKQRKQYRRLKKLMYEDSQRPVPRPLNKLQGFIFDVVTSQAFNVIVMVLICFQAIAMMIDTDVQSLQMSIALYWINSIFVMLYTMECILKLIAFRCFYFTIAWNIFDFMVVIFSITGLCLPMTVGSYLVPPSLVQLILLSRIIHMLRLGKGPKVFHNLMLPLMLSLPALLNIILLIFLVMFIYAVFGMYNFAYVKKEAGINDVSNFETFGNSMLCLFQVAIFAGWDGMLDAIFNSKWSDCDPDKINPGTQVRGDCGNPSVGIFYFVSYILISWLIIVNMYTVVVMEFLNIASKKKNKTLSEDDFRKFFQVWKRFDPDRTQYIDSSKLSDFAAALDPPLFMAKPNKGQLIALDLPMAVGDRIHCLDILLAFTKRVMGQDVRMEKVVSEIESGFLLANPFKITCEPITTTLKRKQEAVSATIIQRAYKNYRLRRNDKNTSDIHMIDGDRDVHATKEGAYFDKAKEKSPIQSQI

Question: Which “block of NaX-QTT currents” value does the source give for CCN(CC)CC(=O)Nc1c(C)cccc1C [lidocaine] here?
Answer: The value was “effective at blocking”.

— patent publication US20250164502A1, “Mutant Human Nax Proteins and Screening Methods” (Genentech, Inc., priority 2021, published 2025)
